The other results are listed elsewhere or left out. The main result of the screen is listed elsewhere. These columns were measured beside it and carry no call. Most of these compounds were active or inconclusive in the main read-out, so they are no random draw. The note in brackets gives the kind of curve behind each potency; many fits are weak.
Assay: qHTS Assay to Find Inhibitors of Chronic Active B-Cell Receptor Signaling
Conditions: ABC-DLBCL IkBa-CBG/CBR reporter, luminescence ratio (green luciferase fused to IkBa over red control in TMD8 lymphoma cells), 4 h
How it was run: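 TMD8 human ABC-DLBCL cells with doxycycline-inducible IκBα–green luciferase fusion and unfused red luciferase, in 0.5% FBS medium; compounds up to 46 uM, 4 h at 37C. Green/red luminescence ratio, filter-overlap corrected, fitted to concentration-response curves.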

[1] = measured here: CBR red luminescence, cell number
[2] = measured here: IkBa-CBG green luminescence

Compound: CCN1CCN(c2nc(-c3cccs3)nc3ccccc23)CC1
- AC50 [1]: 25.9 µM [falling, single point]

Compound: CCOC(=O)N1CCC(=NNC(=O)c2ccccc2F)CC1
- AC50 [1]: 8.2 µM [falling, partial curve]

Compound: Cc1ccc(SCC(=O)O/N=C(\N)c2ccncc2)cc1
- AC50 [1]: 2.51 µM [rising, full curve, poor fit]

Compound: COc1ccc(S(=O)(=O)NCCc2csc3nc(-c4ccccc4)nn23)cc1OC
- AC50 [2]: 11.2 µM [rising, partial curve, poor fit]

Compound: O=C(Nc1cccc(-c2cn3cccnc3n2)c1)c1ccc2c(c1)OCO2
- AC50 [1]: 15.8 µM [falling, partial curve]

Compound: COc1ccc(C2=NN(C(C)=O)C(c3cccs3)C2)cc1OC (stereo not drawn)
- AC50 [2]: 11.2 µM [falling, partial curve]

Compound: CCOC(=O)c1ccc(-c2c(-c3ccccc3OC)oc3ccccc23)cc1F
- AC50 [1]: 7.31 µM [rising, single point]

Compound: COc1cccc(Cl)c1NC(=O)N1CCN(c2ccnc3cc(Cl)ccc23)CC1
- AC50 [1]: 15.8 µM [falling, single point]

Compound: COC(=O)c1cc(-c2c(-c3cc(OC)c(OC)c(OC)c3)noc2C)cc([N+](=O)[O-])c1
- AC50 [1]: 10 µM [falling, single point]

Compound: CCc1ccc(-c2nc(NC(=O)c3ccc(OCC(=O)Nc4ccc(F)cc4)c(OC)c3)sc2C)cc1
- AC50 [1]: 16.4 µM [rising, partial curve, poor fit]

Compound: CCC(CO)NCC(O)COCc1ccc2c(c1)OCO2 (stereo not drawn)
- AC50 [1]: 0.316 µM [rising, full curve, poor fit]

Compound: COc1cc(/C(C)=N/N2CCN(c3ccccc3OC)CC2)ccc1O
- AC50 [1]: 6.31 µM [rising, full curve, poor fit]

Compound: Cc1ccc2c(CC(=O)OC3CCOC3=O)coc2c1 (stereo not drawn)
- AC50 [1]: 12.6 µM [falling, partial curve, poor fit]

Compound: Cc1cc(C)n(-c2c(F)c(F)c(CN3CCCCC3)c(F)c2F)n1
- AC50 [1]: 6.51 µM [falling, single point]

Compound: CCCCN(CC)CCCNC(=O)CS(=O)(=O)Cc1nc(-c2cccc(OC)c2)oc1C
- AC50 [1]: 20.6 µM [falling, partial curve, poor fit]

Compound: CCOc1cccc(C(=O)Nc2ccc3c(c2)OCCO3)c1
- AC50 [1]: 2.82 µM [falling, partial curve, poor fit]

Compound: C/C(=N/NC(=O)c1cccc(Br)c1)C1CC2CCC1C2 (stereo not drawn)
- AC50 [1]: 14.1 µM [falling, partial curve, poor fit]

Compound: COc1ccc(Cl)cc1N1C(=O)C2CCCN2C1c1ccccc1F (stereo not drawn)
- AC50 [1]: 7.31 µM [falling, partial curve, poor fit]

— PubChem BioAssay AID493014 (National Center for Advancing Translational Sciences (NCATS), 2011)
